Binding data for two molecules are collected here from publication PMC3795638.

These are yes or no findings as the source states them, for the method shown. Binding seen in cells or lysates may run through a third protein. Some results given as binding are weak or reduced against the parent protein; the word gives no strength. Where a sequence is shown, tags or fusion partners need not be part of it.

Assay [1] deals with T1, FLAG-g14-3-3 (Giardia duodenalis) (UniProt E2RU97).
T1 sequence (chain, phosphorylated at Thr214; polyglycylated at Glu246 (up to 24 glycines)): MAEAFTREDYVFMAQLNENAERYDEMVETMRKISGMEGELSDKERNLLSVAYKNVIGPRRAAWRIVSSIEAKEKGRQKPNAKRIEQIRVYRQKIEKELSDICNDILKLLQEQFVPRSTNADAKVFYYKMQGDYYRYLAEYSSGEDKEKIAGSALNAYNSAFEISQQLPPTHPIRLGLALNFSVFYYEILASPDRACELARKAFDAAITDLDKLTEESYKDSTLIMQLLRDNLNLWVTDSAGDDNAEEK
Description: co-IP; anti-FLAG M2 agarose incubated with Giardia trophozoite soluble proteins at 4°C for 3 h, washed with K-HT buffer, incubated with 2 mM A8Ap phosphopeptide, eluted with 200 µM FLAG peptide; blot with anti-FLAG and N14 anti-g14-3-3 serum; untransfected WB-C6 as control.

The target in assay [2] is 6xHis-g14-3-3 (Giardia duodenalis) (UniProt E2RU97). Description: cross-linking; whole fly lysates cross-linked with 3 mM BS3, resolved on 10% SDS-PAGE, blots probed with antibodies.

B1: endogenous g14-3-3 (protein, UniProt E2RU97 1-248)
chain: MAEAFTREDYVFMAQLNENAERYDEMVETMRKISGMEGELSDKERNLLSVAYKNVIGPRRAAWRIVSSIEAKEKGRQKPNAKRIEQIRVYRQKIEKELSDICNDILKLLQEQFVPRSTNADAKVFYYKMQGDYYRYLAEYSSGEDKEKIAGSALNAYNSAFEISQQLPPTHPIRLGLALNFSVFYYEILASPDRACELARKAFDAAITDLDKLTEESYKDSTLIMQLLRDNLNLWVTDSAGDDNAEEK
modifications: constitutively phosphorylated at Thr214 and polyglycylated at Glu246
Regarding B1, the binding result in assay [1] is “binds”.

B2: 6xHis-g14-3-3 (protein, UniProt E2RU97 1-248)
chain: MAEAFTREDYVFMAQLNENAERYDEMVETMRKISGMEGELSDKERNLLSVAYKNVIGPRRAAWRIVSSIEAKEKGRQKPNAKRIEQIRVYRQKIEKELSDICNDILKLLQEQFVPRSTNADAKVFYYKMQGDYYRYLAEYSSGEDKEKIAGSALNAYNSAFEISQQLPPTHPIRLGLALNFSVFYYEILASPDRACELARKAFDAAITDLDKLTEESYKDSTLIMQLLRDNLNLWVTDSAGDDNAEEK
For B2, in assay [2], the binding entry is “binds”.
